This is one part of the list.
Experiments:
Assay in all cases: glycan array binding signal (z-score within array); higher = stronger binding
Details in all cases: glycan notation: IUPAC condensed, linker removed
[1] = target: Neu5Ac(a2-3)Gal(b1-3)GalNAc
In short: (§1)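 Arrays were curated from the Consortium for Functional Glycomics database, 3228 in total, and kept only where the protein sequence was available. Binding is expressed as a within-array Z-score. This score was averaged across arrays of the same protein sequence at different concentrations or buffers and across linkers, and negative values can be read as non-binding.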

[2] = target: Neu5Ac(a2-3)Gal(b1-3)GalNAc(b1-3)Gal(a1-4)Gal(b1-4)Glc
In short: as §1

[3] = target: Neu5Ac(a2-3)Gal(b1-3)GalNAc(b1-4)Gal(b1-4)Glc
In short: as §1

[4] = target: Neu5Ac(a2-3)Gal(b1-3)GalNAc(b1-4)[Neu5Ac(a2-3)]Gal(b1-4)Glc
In short: as §1

[5] = target: Neu5Ac(a2-3)Gal(b1-3)GalNAc(b1-4)[Neu5Ac(a2-8)Neu5Ac(a2-3)]Gal(b1-4)Glc
In short: as §1

[6] = target: Neu5Ac(a2-3)Gal(b1-3)GalNAc6S
In short: as §1

[7] = target: Neu5Ac(a2-3)Gal(b1-3)GlcNAc
In short: as §1

[8] = target: Neu5Ac(a2-3)Gal(b1-3)GlcNAc(b1-2)Man
In short: as §1

[9] = target: Neu5Ac(a2-3)Gal(b1-3)GlcNAc(b1-2)Man(a1-3)[GlcNAc(b1-4)][Neu5Ac(a2-3)Gal(b1-3)GlcNAc(b1-2)Man(a1-6)]Man(b1-4)GlcNAc(b1-4)GlcNAc
In short: as §1

[10] = target: Neu5Ac(a2-3)Gal(b1-3)GlcNAc(b1-2)Man(a1-3)[Neu5Ac(a2-3)Gal(b1-3)GlcNAc(b1-2)Man(a1-6)]Man(b1-4)GlcNAc(b1-4)GlcNAc
In short: as §1

[11] = target: Neu5Ac(a2-3)Gal(b1-3)GlcNAc(b1-2)[Neu5Ac(a2-3)Gal(b1-3)GlcNAc(b1-4)]Man(a1-6)[Neu5Ac(a2-3)Gal(b1-3)GlcNAc(b1-2)Man(a1-3)]Man(b1-4)GlcNAc(b1-4)GlcNAc
In short: as §1

[12] = target: Neu5Ac(a2-3)Gal(b1-3)GlcNAc(b1-3)Gal(b1-3)GlcNAc
In short: as §1

[13] = target: Neu5Ac(a2-3)Gal(b1-3)GlcNAc(b1-3)Gal(b1-4)GlcNAc
In short: as §1

[14] = target: Neu5Ac(a2-3)Gal(b1-3)GlcNAc(b1-3)GalNAc
In short: as §1

[15] = target: Neu5Ac(a2-3)Gal(b1-3)GlcNAc(b1-6)GalNAc
In short: as §1

[16] = target: Neu5Ac(a2-3)Gal(b1-3)GlcNAc6S
In short: as §1

[17] = target: Neu5Ac(a2-3)Gal(b1-3)[Fuc(a1-4)]GlcNAc
In short: as §1

[18] = target: Neu5Ac(a2-3)Gal(b1-3)[Fuc(a1-4)]GlcNAc(b1-3)Gal(b1-3)[Fuc(a1-4)]GlcNAc
In short: as §1

[19] = target: Neu5Ac(a2-3)Gal(b1-3)[Fuc(a1-4)]GlcNAc(b1-3)Gal(b1-4)[Fuc(a1-3)]GlcNAc
In short: as §1

[20] = target: Neu5Ac(a2-3)Gal(b1-3)[GlcNAc(b1-6)]GalNAc
In short: as §1

[21] = target: Neu5Ac(a2-3)Gal(b1-3)[Neu5Ac(a2-6)]GalNAc
In short: as §1

[22] = target: Neu5Ac(a2-3)Gal(b1-3)[Neu5Ac(a2-6)]GlcNAc(b1-3)[Fuc(a1-3)[Gal(b1-4)]GlcNAc(b1-6)]Gal(b1-4)Glc
In short: as §1

[23] = target: Neu5Ac(a2-3)Gal(b1-3)]Neu5Ac(a2-3)Gal(b1-4)]GlcNAc
In short: as §1

Neu5Ac(a2-3)Gal(b1-4)Glc = target: Neu5Ac(a2-3)Gal(b1-4)Glc
In short: as §1

[24] = target: Neu5Ac(a2-3)Gal(b1-4)GlcNAc
In short: as §1

[25] = target: Neu5Ac(a2-3)Gal(b1-4)GlcNAc(b1-2)Man
In short: as §1

[26] = target: Neu5Ac(a2-3)Gal(b1-4)GlcNAc(b1-2)Man(a1-3)[GlcNAc(b1-4)][Neu5Ac(a2-3)Gal(b1-4)GlcNAc(b1-2)Man(a1-6)]Man(b1-4)GlcNAc(b1-4)GlcNAc
In short: as §1

[27] = target: Neu5Ac(a2-3)Gal(b1-4)GlcNAc(b1-2)Man(a1-3)[Neu5Ac(a2-3)Gal(b1-4)GlcNAc(b1-2)Man(a1-6)]Man(b1-4)GlcNAc(b1-4)GlcNAc
In short: as §1

[28] = target: Neu5Ac(a2-3)Gal(b1-4)GlcNAc(b1-2)Man(a1-3)[Neu5Ac(a2-3)Gal(b1-4)GlcNAc(b1-2)Man(a1-6)]Man(b1-4)GlcNAc(b1-4)[Fuc(a1-6)]GlcNAc
In short: as §1

[29] = target: Neu5Ac(a2-3)Gal(b1-4)GlcNAc(b1-2)Man(a1-3)[Neu5Ac(a2-6)Gal(b1-4)GlcNAc(b1-2)Man(a1-6)]Man(b1-4)GlcNAc(b1-4)GlcNAc
In short: as §1

[30] = target: Neu5Ac(a2-3)Gal(b1-4)GlcNAc(b1-2)[Neu5Ac(a2-3)Gal(b1-4)GlcNAc(b1-4)]Man(a1-3)[GlcNAc(b1-4)][Neu5Ac(a2-3)Gal(b1-4)GlcNAc(b1-2)[Neu5Ac(a2-3)Gal(b1-4)GlcNAc(b1-6)]Man(a1-6)]Man(b1-4)GlcNAc(b1-4)GlcNAc
In short: as §1

[31] = target: Neu5Ac(a2-3)Gal(b1-4)GlcNAc(b1-2)[Neu5Ac(a2-3)Gal(b1-4)GlcNAc(b1-4)]Man(a1-3)[GlcNAc(b1-4)][Neu5Ac(a2-3)Gal(b1-4)GlcNAc(b1-4)Man(a1-6)]Man(b1-4)GlcNAc(b1-4)GlcNAc
In short: as §1

[32] = target: Neu5Ac(a2-3)Gal(b1-4)GlcNAc(b1-2)[Neu5Ac(a2-3)Gal(b1-4)GlcNAc(b1-6)]Man(a1-6)[Neu5Ac(a2-3)Gal(b1-4)GlcNAc(b1-2)Man(a1-3)][GlcNAc(b1-4)]Man(b1-4)GlcNAc(b1-4)GlcNAc
In short: as §1

[33] = target: Neu5Ac(a2-3)Gal(b1-4)GlcNAc(b1-3)Gal
In short: as §1

[34] = target: Neu5Ac(a2-3)Gal(b1-4)GlcNAc(b1-3)Gal(b1-3)GlcNAc
In short: as §1

[35] = target: Neu5Ac(a2-3)Gal(b1-4)GlcNAc(b1-3)Gal(b1-4)GlcNAc
In short: as §1

[36] = target: Neu5Ac(a2-3)Gal(b1-4)GlcNAc(b1-3)Gal(b1-4)GlcNAc(b1-2)Man(a1-3)[Neu5Ac(a2-3)Gal(b1-4)GlcNAc(b1-3)Gal(b1-4)GlcNAc(b1-2)Man(a1-6)]Man(b1-4)GlcNAc(b1-4)GlcNAc
In short: as §1

[37] = target: Neu5Ac(a2-3)Gal(b1-4)GlcNAc(b1-3)Gal(b1-4)GlcNAc(b1-3)Gal(b1-4)GlcNAc
In short: as §1

[38] = target: Neu5Ac(a2-3)Gal(b1-4)GlcNAc(b1-3)Gal(b1-4)GlcNAc(b1-3)Gal(b1-4)GlcNAc(b1-2)Man(a1-3)[Neu5Ac(a2-3)Gal(b1-4)GlcNAc(b1-3)Gal(b1-4)GlcNAc(b1-3)Gal(b1-4)GlcNAc(b1-2)Man(a1-6)]GalNAc
In short: as §1

[39] = target: Neu5Ac(a2-3)Gal(b1-4)GlcNAc(b1-3)Gal(b1-4)GlcNAc(b1-3)GalNAc
In short: as §1

[40] = target: Neu5Ac(a2-3)Gal(b1-4)GlcNAc(b1-3)Gal(b1-4)GlcNAc(b1-3)[Neu5Ac(a2-3)Gal(b1-4)GlcNAc(b1-3)Gal(b1-4)GlcNAc(b1-6)]GalNAc
In short: as §1

[41] = target: Neu5Ac(a2-3)Gal(b1-4)GlcNAc(b1-3)Gal(b1-4)GlcNAc(b1-6)[Gal(b1-3)]GalNAc
In short: as §1

[42] = target: Neu5Ac(a2-3)Gal(b1-4)GlcNAc(b1-3)Gal(b1-4)[Fuc(a1-3)]GlcNAc
In short: as §1

[43] = target: Neu5Ac(a2-3)Gal(b1-4)GlcNAc(b1-3)GalNAc
In short: as §1

[44] = target: Neu5Ac(a2-3)Gal(b1-4)GlcNAc(b1-3)[Neu5Ac(a2-3)Gal(b1-4)GlcNAc(b1-6)]GalNAc
In short: as §1

B1: Pwp6 (Candida glabrata) (protein)
chain: MGSSHHHHHHSSGLVPRGSHMASANLPKLTNICQIPDNVKKTSGFKGEIRRIGLFPPGGDYTYLLKFPSTGSTASDTISLTTKPQLSTSGWFPSLFGHTYFIKADLLVYMVAYFVPTETGEYTFKLVNSDDAAVMYVGNPSAFPCGSIDTWPEPRKEDINVCDKISASTKLYMEKGLAYPVRLVWYNGGGDGQFNAQFIDPSGTTHTDWNGYVWQYDACTDCDYK
[1]
  glycan array binding signal (z-score): -0.021
[2]
  glycan array binding signal (z-score): -0.145
[3]
  glycan array binding signal (z-score): 0.098
[4]
  glycan array binding signal (z-score): 0.335
[5]
  glycan array binding signal (z-score): 0.036
[6]
  glycan array binding signal (z-score): -0.746
[7]
  glycan array binding signal (z-score): -0.416
[8]
  glycan array binding signal (z-score): -0.001
[9]
  glycan array binding signal (z-score): -0.228
[10]
  glycan array binding signal (z-score): 0.354
[11]
  glycan array binding signal (z-score): 0.62
[12]
  glycan array binding signal (z-score): -0.097
[13]
  glycan array binding signal (z-score): -0.368
[14]
  glycan array binding signal (z-score): 0.608
[15]
  glycan array binding signal (z-score): 1.45
[16]
  glycan array binding signal (z-score): 0.136
[17]
  glycan array binding signal (z-score): -0.364
[18]
  glycan array binding signal (z-score): 0.185
[19]
  glycan array binding signal (z-score): -0.125
[20]
  glycan array binding signal (z-score): 0.907
[21]
  glycan array binding signal (z-score): -0.281
[22]
  glycan array binding signal (z-score): 0.386
[23]
  glycan array binding signal (z-score): 1.28
Neu5Ac(a2-3)Gal(b1-4)Glc
  glycan array binding signal (z-score): -0.477
[24]
  glycan array binding signal (z-score): -0.63
[25]
  glycan array binding signal (z-score): 0.737
[26]
  glycan array binding signal (z-score): -0.385
[27]
  glycan array binding signal (z-score): 4.2
[28]
  glycan array binding signal (z-score): -0.488
[29]
  glycan array binding signal (z-score): 0.345
[30]
  glycan array binding signal (z-score): 0.477
[31]
  glycan array binding signal (z-score): 0.259
[32]
  glycan array binding signal (z-score): 1.89
[33]
  glycan array binding signal (z-score): -0.537
[34]
  glycan array binding signal (z-score): -0.451
[35]
  glycan array binding signal (z-score): -0.592
[36]
  glycan array binding signal (z-score): 0.992
[37]
  glycan array binding signal (z-score): 0.324
[38]
  glycan array binding signal (z-score): 1.69
[39]
  glycan array binding signal (z-score): 0.749
[40]
  glycan array binding signal (z-score): 0.745
[41]
  glycan array binding signal (z-score): 0.556
[42]
  glycan array binding signal (z-score): 0.372
[43]
  glycan array binding signal (z-score): -0.205
[44]
  glycan array binding signal (z-score): 0.666

Reference: the supplement of paper PMC8728848
